Test: general procedure: Fmoc solid-phase peptide synthesis; Sieber resin (0.6 mmol/g); HBTU/HOBt/DIPEA
Details: whole synthesis, scale of the general procedure 100.0 g resin

For eptifibatide, the “final HPLC purity” value (run 1) was 99.28%, the “final HPLC purity” value (run 2) was 99.10% and the “final HPLC purity” value (run 3) was 99.27%. For the same substance, the “final HPLC purity” value (run 4) was 99.24%, the “final HPLC purity” value (run 5) was 99.20% and the “final HPLC purity” value (run 6) was 99.27%. For the same substance, the “final HPLC purity” value (run 7) was 99.24%, the “final HPLC purity” value (run 8) was 99.27% and the “final HPLC purity” value (run 9) was 99.14%.

— patent US9562071 (dated 2017)
